# Taken from: PubChem BioAssay AID1259254 (NCATS, 2017)
# Purpose: 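Genome-wide screen for genes that prevent DNA re-replication in cancer cells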 (primary screen)
# Cell system: human HCT116 colorectal cancer cells
# Reagents: single siRNA against human genes
# Duration: 3 days
# Measurement: 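Nuclei stained with Hoechst and imaged; cell-cycle phase assigned by DNA content; G2 share scaled per plate, non-targeting siRNA 0%, GMNN siRNA 100%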
# Direction: G2 robust z-score and G2 cells, % of GMNN control: higher = more G2 cells, more excess DNA replication
# Active means: 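An siRNA counts as active if its G2 robust z-score lies at least 5 MADs above the screen median; here such calls match roughly 38% of GMNN control or more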
# Here is one part, drawn at random, of about 59,000 reagents tested. Over the whole deposit, about 1,550 (2.6%) got an active call. 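G2 share is only a proxy for re-replication; each gene was hit by three separate siRNAs, and active genes were retested.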 Unmarked entries are inactive. Reagents against one gene are numbered here. Further read-outs or replicates are left out here. Not given: the amount of reagent.
gene symbol,siRNA no.,G2 robust z-score,"G2 cells, % of GMNN control"
FMO1 (flavin containing dimethylaniline monoxygenase 1),1,2.58,21.1
FMO1 (flavin containing dimethylaniline monoxygenase 1),2,0.144,3.98
FMO1 (flavin containing dimethylaniline monoxygenase 1),3,-0.553,-0.927
LOC729040 (retired record),1,0.393,5.73
LOC729040 (retired record),2,-0.628,-1.45
LOC729040 (retired record),3,0.406,5.82
CAPN7 (calpain 7),1,-0.927,-3.56
CAPN7 (calpain 7),2,-0.575,-1.08
CAPN7 (calpain 7),3,0.481,6.35
SCRN2 (secernin 2),1,2.87,23.2
SCRN2 (secernin 2),2,-0.165,1.81
SCRN2 (secernin 2),3,-0.633,-1.48
ZFAND4 (zinc finger AN1-type containing 4),1,0.337,5.34
ZFAND4 (zinc finger AN1-type containing 4),2,3.22,25.6
ZFAND4 (zinc finger AN1-type containing 4),3,0.0676,3.44

Sorted by “G2 robust z-score” (ascending): some entries from above
gene symbol,siRNA no.,G2 robust z-score,"G2 cells, % of GMNN control"
CAPN7 (calpain 7),1,-0.927,-3.56
CAPN7 (calpain 7),2,-0.575,-1.08
LOC729040 (retired record),3,0.406,5.82
CAPN7 (calpain 7),3,0.481,6.35
SCRN2 (secernin 2),1,2.87,23.2

The listing continues.
gene symbol,siRNA no.,G2 robust z-score,"G2 cells, % of GMNN control"
IQCF1 (IQ motif containing F1),1,-0.419,0.0229
IQCF1 (IQ motif containing F1),2,2.61,21.3
IQCF1 (IQ motif containing F1),3,-0.202,1.55
TMPRSS11D (transmembrane serine protease 11D),1,0.207,4.43
TMPRSS11D (transmembrane serine protease 11D),2,1.8,15.7
TMPRSS11D (transmembrane serine protease 11D),3,-0.0536,2.59
ZNF391 (zinc finger protein 391),1,2.38,19.7
ZNF391 (zinc finger protein 391),2,-0.171,1.76
ZNF391 (zinc finger protein 391),3,-0.0249,2.79
PNISR (PNN interacting serine and arginine rich protein),1,-0.452,-0.212
PNISR (PNN interacting serine and arginine rich protein),2,-0.0625,2.53
PNISR (PNN interacting serine and arginine rich protein),3,-0.393,0.206
CHCHD1 (coiled-coil-helix-coiled-coil-helix domain containing 1),1,0.677,7.73
CHCHD1 (coiled-coil-helix-coiled-coil-helix domain containing 1),2,0.547,6.82
CHCHD1 (coiled-coil-helix-coiled-coil-helix domain containing 1),3,-0.977,-3.9
